Measured values: patent publication US20110085986A1, “Diagnosis and treatment of epithelial cancers using labeled/conjugated progastrin peptides” (priority 2009, published 2011)
No constants are given. Whether binding was seen depends on the method and setting. Some binding calls cover weakened binding; strength is not graded here.

Chains of the proteins cited; added tags and fusions are not shown. Residues count along the entry.
UniProt P07355, residues 2-339: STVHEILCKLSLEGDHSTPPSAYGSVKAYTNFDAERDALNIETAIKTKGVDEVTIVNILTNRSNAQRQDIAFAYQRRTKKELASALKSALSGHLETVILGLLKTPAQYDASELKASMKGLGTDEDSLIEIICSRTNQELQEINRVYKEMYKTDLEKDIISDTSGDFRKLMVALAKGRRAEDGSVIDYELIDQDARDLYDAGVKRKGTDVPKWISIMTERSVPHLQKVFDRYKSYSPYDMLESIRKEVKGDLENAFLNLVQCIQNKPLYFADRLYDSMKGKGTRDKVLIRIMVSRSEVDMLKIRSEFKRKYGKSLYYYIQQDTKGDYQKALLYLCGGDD

Molecular target: Annexin A2 in HEK-293 cells (UniProt P07355)
Assay: fluorescence microscopy co-localization in cells (FIG. 7)

B1: Fluorescein isothiocyanate (FITC) labeled PG26 peptide (peptide)
peptide: QGPWLEEEEEAYGWMDFGRRSAEDEN
modifications: FITC at the N-terminal end
binding: binds
